Results: the supplement of paper PMC6078165
Values are relative to the signal before dosing, not to a vehicle control; the signal also falls without drug.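 Fibroblast labels denote human fibroblasts, mainly primary ones from uterus (C12385, HUF), lung (H6013), bone (Hs27A), adrenal (HADF) and skin (WS1), plus mammary HMF and breast cancer-associated Hs343T. Cancer cells are basal-like or mesenchymal-like triple-negative breast cancer lines. A hit is a response shift exceeding 3x replicate standard deviation. The tissue of the other fibroblasts is not given here.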

System: MDAMB468
Assay: relative JC-1 red fluorescence (viability) vs pre-drug, coculture with fibroblast (fraction); higher = more viable cancer cells
Description: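 JC-1 labelled TNBC cells cocultured 1:1 (1,500 cells each) with CellTrace Violet stained primary or stromal fibroblasts in 384-well plates in FluoroBrite medium, treated with one of 42 anticancer drugs at 0.1, 1, 10 or 100 uM. JC-1 red fluorescence (mitochondrial integrity in cancer cells only) was read by plate reader every 8 h for 72 h. Values are normalised to each well's pre-drug value. The stock of one drug was tenfold lower, so its dose labels may be too high.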

CO[C@H]1C[C@@H]2CC[C@@H](C)[C@@](O)(O2)C(=O)C(=O)N2CCCC[C@H]2C(=O)O[C@H]([C@H](C)C[C@@H]2CC[C@@H](OCCO)[C@H](OC)C2)CC(=O)[C@H](C)/C=C(\C)[C@@H](O)[C@@H](OC)C(=O)[C@H](C)C[C@H](C)/C=C/C=C/C=C/1C [Everolimus]
relative JC-1 red fluorescence
Settings	8 h	16 h	24 h	32 h	40 h	48 h	56 h	64 h	72 h
0.1 µM, coculture fibroblast: C12385	0.86012	0.7669	0.716	0.6586	0.609	0.593	0.55	0.521	0.507
0.1 µM, coculture fibroblast: H6013	0.8272	0.8166	0.786	0.781	0.765	0.785	0.777	0.789	0.742
0.1 µM, coculture fibroblast: H6019	0.8	0.7708	0.7363	0.682	0.656	0.65	0.619	0.602	0.588
0.1 µM, coculture fibroblast: H6076	0.9127	0.938	0.8806	0.854	0.8	0.78	0.749	0.738	0.762
0.1 µM, coculture fibroblast: H6231	0.818	0.891	0.872	0.858	0.807	0.79	0.752	0.723	0.718
0.1 µM, coculture fibroblast: HADF	0.902	0.849	0.815	0.836	0.792	0.794	0.756	0.76	0.747
0.1 µM, coculture fibroblast: HCFa	0.8153	0.78	0.725	0.6976	0.64	0.639	0.593	0.56	0.517
0.1 µM, coculture fibroblast: HCPF	0.857	0.916	0.857	0.846	0.789	0.766	0.708	0.7	0.682
0.1 µM, coculture fibroblast: HHSteC	0.865	0.836	0.817	0.796	0.762	0.768	0.71	0.687	0.638
0.1 µM, coculture fibroblast: HMF	0.835	0.94591	0.884	0.869	0.805	0.803	0.752	0.741	0.726
0.1 µM, coculture fibroblast: HPFa	0.9248	0.855	0.825	0.7674	0.7396	0.7533	0.7	0.693	0.633
0.1 µM, coculture fibroblast: HUF	0.8973	0.818	0.782	0.7296	0.6892	0.6646	0.6237	0.6033	0.5804
0.1 µM, coculture fibroblast: Hs5	0.839	0.938	0.86	0.842	0.792	0.759	0.718	0.685	0.706
0.1 µM, coculture fibroblast: Hs27A	0.854	0.801	0.758	0.758	0.702	0.703	0.666	0.656	0.625
0.1 µM, coculture fibroblast: Hs343T	0.88073	0.936	0.863	0.829	0.761	0.742	0.693	0.676	0.653
0.1 µM, coculture fibroblast: WS1	0.8246	0.7627	0.701	0.631	0.588	0.554	0.534	0.504	0.491
1 µM, coculture fibroblast: C12385	0.897	0.8712	0.815	0.762	0.739	0.74471	0.7209	0.7055	0.705
1 µM, coculture fibroblast: H6013	0.894	0.86	0.811	0.815	0.806	0.817	0.803	0.813	0.77
1 µM, coculture fibroblast: H6019	0.859	0.799	0.7784	0.734	0.702	0.7067	0.6669	0.652	0.641
1 µM, coculture fibroblast: H6076	0.9094	0.9271	0.901	0.925	0.876	0.878	0.861	0.854	0.792
1 µM, coculture fibroblast: H6231	0.8199	0.895	0.821	0.798	0.75	0.735	0.694	0.681	0.6825
1 µM, coculture fibroblast: HADF	0.906	0.856	0.799	0.803	0.748	0.733	0.692	0.684	0.632
1 µM, coculture fibroblast: HCFa	0.885	0.8248	0.79	0.7793	0.693	0.6727	0.6117	0.574	0.505
1 µM, coculture fibroblast: HCPF	0.893	0.894	0.902	0.893	0.828	0.808	0.767	0.752	0.746
1 µM, coculture fibroblast: HHSteC	0.919	0.866	0.822	0.79	0.7377	0.7331	0.667	0.631	0.573
1 µM, coculture fibroblast: HMF	0.85	0.965	0.881	0.8527	0.8007	0.7842	0.733	0.712	0.692
1 µM, coculture fibroblast: HPFa	0.921	0.895	0.835	0.795	0.763	0.764	0.683	0.66	0.586
1 µM, coculture fibroblast: HUF	0.873	0.793	0.75	0.7	0.664	0.648	0.619	0.606	0.584
1 µM, coculture fibroblast: Hs5	0.898	0.908	0.923	0.895	0.828	0.795	0.75	0.726	0.754
1 µM, coculture fibroblast: Hs27A	0.845	0.786	0.771	0.772	0.739	0.742	0.718	0.721	0.682
1 µM, coculture fibroblast: Hs343T	0.875	0.949	0.8801	0.8798	0.82	0.8116	0.778	0.772	0.76
1 µM, coculture fibroblast: WS1	0.865	0.8067	0.74	0.6877	0.647	0.631	0.6056	0.5789	0.5684
10 µM, coculture fibroblast: C12385	0.885	0.9035	0.883	0.851	0.809	0.80062	0.76	0.719	0.6982
10 µM, coculture fibroblast: H6013	0.8506	0.883	0.8793	0.9	0.879	0.903	0.873	0.86	0.819
10 µM, coculture fibroblast: H6019	0.954	0.844	0.845	0.861	0.833	0.985	0.938	0.931	0.928
10 µM, coculture fibroblast: H6076	0.914	0.914	0.895	0.883	0.833	0.806	0.86	0.797	0.842
10 µM, coculture fibroblast: H6231	0.807	0.8	0.9678	0.933	0.8998	0.869	0.8042	0.777	0.752
10 µM, coculture fibroblast: HADF	0.8921	0.901	0.878	0.912	0.8684	0.8806	0.84277	0.8292	0.81334
10 µM, coculture fibroblast: HCFa	0.8637	0.8517	0.8166	0.816	0.753	0.757	0.713	0.677	0.648
10 µM, coculture fibroblast: HCPF	0.839	0.937	0.917	0.929	0.873	0.852	0.801	0.784	0.781
10 µM, coculture fibroblast: HHSteC	0.859	0.8822	0.88	0.876	0.841	0.8525	0.7938	0.7754	0.7451
10 µM, coculture fibroblast: HMF	0.806	0.976	0.9372	0.936	0.878	0.865	0.809	0.799	0.784
10 µM, coculture fibroblast: HPFa	0.891	0.915	0.898	0.8698	0.8382	0.8532	0.7995	0.7896	0.727
10 µM, coculture fibroblast: HUF	0.945	0.958	0.944	0.905	0.863	0.86	0.828	0.811	0.802
10 µM, coculture fibroblast: Hs5	0.9412	0.95443	0.941	0.936	0.894	0.867	0.832	0.81	0.843
10 µM, coculture fibroblast: Hs27A	0.822	0.842	0.793	0.8158	0.76	0.776	0.746	0.739	0.717
10 µM, coculture fibroblast: Hs343T	0.875	0.867	0.9254	0.897	0.901	0.881	0.837	0.826	0.801
10 µM, coculture fibroblast: WS1	0.9	0.878	0.8468	0.82	0.787	0.764	0.744	0.723	0.708
100 µM, coculture fibroblast: C12385	0.923	0.782	0.621	0.418	0.3032	0.281	0.276	0.293	0.297
100 µM, coculture fibroblast: H6013	0.829	0.855	0.869	0.869	0.708	0.609	0.525	0.471	0.417
100 µM, coculture fibroblast: H6019	0.801	0.944	0.746	0.596	0.463	0.378	0.323	0.285	0.274
100 µM, coculture fibroblast: H6076	0.951	0.97102	0.928	0.931	0.854	0.852	0.82	0.812	0.868
100 µM, coculture fibroblast: H6231	0.7933	0.834	0.883	0.885	0.96366	0.951	0.896	0.881	0.869
100 µM, coculture fibroblast: HADF	0.774	0.881	0.788	0.839	0.696	0.596	0.508	0.522	0.49
100 µM, coculture fibroblast: HCFa	0.7707	0.891	0.801	0.813	0.8345	0.692	0.537	0.448	0.414
100 µM, coculture fibroblast: HCPF	0.876	0.968	0.908	0.906	0.854	0.833	0.784	0.766	0.753
100 µM, coculture fibroblast: HHSteC	0.762	0.835	0.902	0.8093	0.796	0.699	0.561	0.462	0.389
100 µM, coculture fibroblast: HMF	0.885	0.712	0.849	0.864	0.81	0.798	0.827	0.783	0.78549
100 µM, coculture fibroblast: HPFa	0.883	0.848	0.886	0.791	0.761	0.768	0.607	0.51	0.448
100 µM, coculture fibroblast: HUF	0.772	0.914	0.767	0.62	0.472	0.394	0.375	0.402	0.412
100 µM, coculture fibroblast: Hs5	0.89	0.84	0.791	0.671	0.637	0.564	0.618	0.512	0.627
100 µM, coculture fibroblast: Hs27A	0.924	0.849	0.737	0.743	0.69	0.626	0.547	0.511	0.453
100 µM, coculture fibroblast: Hs343T	0.807	0.81731	0.697	0.728	0.668	0.656	0.619	0.6	0.603
100 µM, coculture fibroblast: WS1	0.912	0.819	0.616	0.448	0.3305	0.29	0.291	0.305	0.318
